Experimental data from publication doi:10.1101/2021.05.24.445526.
These are yes or no findings as the source states them, for the method shown. Binding seen in cells or lysates may run through a third protein. Some entries that bind do so weakly or less than the wild type.

The chains behind the UniProt entries cited, without tags or fusion partners.
UniProt P20963: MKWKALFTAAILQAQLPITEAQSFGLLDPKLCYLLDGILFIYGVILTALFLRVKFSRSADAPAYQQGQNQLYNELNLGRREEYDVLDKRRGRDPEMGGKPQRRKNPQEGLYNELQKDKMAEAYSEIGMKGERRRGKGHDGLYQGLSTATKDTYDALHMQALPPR
UniProt P29350: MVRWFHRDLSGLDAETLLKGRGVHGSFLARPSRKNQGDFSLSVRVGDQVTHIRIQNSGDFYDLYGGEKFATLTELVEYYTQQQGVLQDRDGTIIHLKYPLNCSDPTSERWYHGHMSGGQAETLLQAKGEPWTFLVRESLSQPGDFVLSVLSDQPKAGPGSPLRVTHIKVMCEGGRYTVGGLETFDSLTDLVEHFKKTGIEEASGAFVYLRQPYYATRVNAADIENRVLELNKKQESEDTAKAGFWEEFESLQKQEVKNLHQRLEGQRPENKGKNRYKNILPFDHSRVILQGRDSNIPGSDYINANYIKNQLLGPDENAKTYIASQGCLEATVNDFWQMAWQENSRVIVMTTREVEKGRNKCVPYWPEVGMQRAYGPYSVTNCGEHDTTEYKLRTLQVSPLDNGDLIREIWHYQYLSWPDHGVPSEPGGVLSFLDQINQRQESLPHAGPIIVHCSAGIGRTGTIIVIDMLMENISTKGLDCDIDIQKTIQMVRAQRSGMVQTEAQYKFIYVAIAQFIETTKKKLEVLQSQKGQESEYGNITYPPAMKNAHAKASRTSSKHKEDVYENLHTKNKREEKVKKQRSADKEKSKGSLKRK

Target: TCR-ζ chain (human (endogenous in Jurkat)) (UniProt P20963)
Assay: co-IP

binding: binds
Substance: SHP1 (from UniProt P29350 1-595)
